# Reference: the supplement of paper PMC10849652
# The chains behind the UniProt entries cited, without tags or fusion partners. Where a name states a change or a piece, a line headed by the entry shows the natural chain unless it says otherwise.
# UniProt P60983, whole entry, looked up: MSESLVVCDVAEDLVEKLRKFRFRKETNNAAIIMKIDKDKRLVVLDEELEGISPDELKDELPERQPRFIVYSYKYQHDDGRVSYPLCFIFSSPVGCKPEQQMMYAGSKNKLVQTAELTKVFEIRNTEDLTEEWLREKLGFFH
# UniProt Q3T8J9: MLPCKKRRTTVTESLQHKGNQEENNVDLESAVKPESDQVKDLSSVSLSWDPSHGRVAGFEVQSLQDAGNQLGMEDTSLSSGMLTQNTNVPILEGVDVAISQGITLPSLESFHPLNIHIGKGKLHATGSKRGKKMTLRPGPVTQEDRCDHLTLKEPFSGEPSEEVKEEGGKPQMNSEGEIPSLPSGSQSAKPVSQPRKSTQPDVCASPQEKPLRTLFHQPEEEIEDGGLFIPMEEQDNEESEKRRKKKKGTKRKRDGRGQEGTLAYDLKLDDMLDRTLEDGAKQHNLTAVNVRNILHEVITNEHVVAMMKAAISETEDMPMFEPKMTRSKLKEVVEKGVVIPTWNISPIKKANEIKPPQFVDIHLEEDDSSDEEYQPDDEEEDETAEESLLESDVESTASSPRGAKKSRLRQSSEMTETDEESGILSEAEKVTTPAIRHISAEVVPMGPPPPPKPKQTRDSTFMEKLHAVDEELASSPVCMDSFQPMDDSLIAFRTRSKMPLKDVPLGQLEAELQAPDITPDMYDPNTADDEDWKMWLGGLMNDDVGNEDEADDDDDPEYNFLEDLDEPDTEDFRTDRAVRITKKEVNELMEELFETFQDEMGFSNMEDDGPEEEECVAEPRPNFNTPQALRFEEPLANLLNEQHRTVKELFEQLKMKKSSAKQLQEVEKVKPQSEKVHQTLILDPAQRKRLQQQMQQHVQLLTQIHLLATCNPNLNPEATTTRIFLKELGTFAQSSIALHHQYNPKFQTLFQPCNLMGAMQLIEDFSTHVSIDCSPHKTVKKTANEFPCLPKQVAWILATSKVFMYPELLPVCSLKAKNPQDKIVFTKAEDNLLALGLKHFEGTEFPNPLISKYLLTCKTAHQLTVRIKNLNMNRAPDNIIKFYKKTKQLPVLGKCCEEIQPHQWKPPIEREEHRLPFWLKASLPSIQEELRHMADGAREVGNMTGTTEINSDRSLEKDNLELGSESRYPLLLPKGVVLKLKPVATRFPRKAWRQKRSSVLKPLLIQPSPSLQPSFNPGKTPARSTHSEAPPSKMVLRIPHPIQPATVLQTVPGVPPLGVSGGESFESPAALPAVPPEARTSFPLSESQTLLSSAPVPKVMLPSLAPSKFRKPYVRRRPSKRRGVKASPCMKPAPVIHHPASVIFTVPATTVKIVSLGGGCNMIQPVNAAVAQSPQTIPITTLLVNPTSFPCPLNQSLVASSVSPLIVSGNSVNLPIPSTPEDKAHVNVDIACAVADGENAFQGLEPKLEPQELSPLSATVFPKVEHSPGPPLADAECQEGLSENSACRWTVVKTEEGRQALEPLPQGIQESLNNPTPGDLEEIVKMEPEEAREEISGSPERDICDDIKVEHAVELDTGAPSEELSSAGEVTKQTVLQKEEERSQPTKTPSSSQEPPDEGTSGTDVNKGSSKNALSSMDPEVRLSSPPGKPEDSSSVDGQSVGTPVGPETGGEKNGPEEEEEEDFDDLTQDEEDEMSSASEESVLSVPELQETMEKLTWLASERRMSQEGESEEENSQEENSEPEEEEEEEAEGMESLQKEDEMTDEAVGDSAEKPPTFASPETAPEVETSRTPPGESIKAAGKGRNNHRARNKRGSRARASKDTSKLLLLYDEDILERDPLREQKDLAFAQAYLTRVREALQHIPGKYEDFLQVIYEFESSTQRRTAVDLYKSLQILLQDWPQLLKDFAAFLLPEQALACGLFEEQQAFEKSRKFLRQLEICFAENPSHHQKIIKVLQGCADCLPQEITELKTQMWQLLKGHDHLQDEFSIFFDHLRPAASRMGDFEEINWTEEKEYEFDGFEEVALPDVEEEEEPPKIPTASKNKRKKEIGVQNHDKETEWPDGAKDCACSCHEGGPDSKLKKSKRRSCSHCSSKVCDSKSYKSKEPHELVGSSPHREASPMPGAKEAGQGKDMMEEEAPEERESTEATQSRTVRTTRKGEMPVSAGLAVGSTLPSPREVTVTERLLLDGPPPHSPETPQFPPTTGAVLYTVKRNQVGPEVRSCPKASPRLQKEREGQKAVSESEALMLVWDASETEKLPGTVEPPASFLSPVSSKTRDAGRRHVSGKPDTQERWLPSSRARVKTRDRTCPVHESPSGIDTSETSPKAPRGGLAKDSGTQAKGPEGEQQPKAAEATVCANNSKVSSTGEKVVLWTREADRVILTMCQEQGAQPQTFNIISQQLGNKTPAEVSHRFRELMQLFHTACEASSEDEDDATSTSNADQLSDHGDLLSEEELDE
# UniProt Q08378: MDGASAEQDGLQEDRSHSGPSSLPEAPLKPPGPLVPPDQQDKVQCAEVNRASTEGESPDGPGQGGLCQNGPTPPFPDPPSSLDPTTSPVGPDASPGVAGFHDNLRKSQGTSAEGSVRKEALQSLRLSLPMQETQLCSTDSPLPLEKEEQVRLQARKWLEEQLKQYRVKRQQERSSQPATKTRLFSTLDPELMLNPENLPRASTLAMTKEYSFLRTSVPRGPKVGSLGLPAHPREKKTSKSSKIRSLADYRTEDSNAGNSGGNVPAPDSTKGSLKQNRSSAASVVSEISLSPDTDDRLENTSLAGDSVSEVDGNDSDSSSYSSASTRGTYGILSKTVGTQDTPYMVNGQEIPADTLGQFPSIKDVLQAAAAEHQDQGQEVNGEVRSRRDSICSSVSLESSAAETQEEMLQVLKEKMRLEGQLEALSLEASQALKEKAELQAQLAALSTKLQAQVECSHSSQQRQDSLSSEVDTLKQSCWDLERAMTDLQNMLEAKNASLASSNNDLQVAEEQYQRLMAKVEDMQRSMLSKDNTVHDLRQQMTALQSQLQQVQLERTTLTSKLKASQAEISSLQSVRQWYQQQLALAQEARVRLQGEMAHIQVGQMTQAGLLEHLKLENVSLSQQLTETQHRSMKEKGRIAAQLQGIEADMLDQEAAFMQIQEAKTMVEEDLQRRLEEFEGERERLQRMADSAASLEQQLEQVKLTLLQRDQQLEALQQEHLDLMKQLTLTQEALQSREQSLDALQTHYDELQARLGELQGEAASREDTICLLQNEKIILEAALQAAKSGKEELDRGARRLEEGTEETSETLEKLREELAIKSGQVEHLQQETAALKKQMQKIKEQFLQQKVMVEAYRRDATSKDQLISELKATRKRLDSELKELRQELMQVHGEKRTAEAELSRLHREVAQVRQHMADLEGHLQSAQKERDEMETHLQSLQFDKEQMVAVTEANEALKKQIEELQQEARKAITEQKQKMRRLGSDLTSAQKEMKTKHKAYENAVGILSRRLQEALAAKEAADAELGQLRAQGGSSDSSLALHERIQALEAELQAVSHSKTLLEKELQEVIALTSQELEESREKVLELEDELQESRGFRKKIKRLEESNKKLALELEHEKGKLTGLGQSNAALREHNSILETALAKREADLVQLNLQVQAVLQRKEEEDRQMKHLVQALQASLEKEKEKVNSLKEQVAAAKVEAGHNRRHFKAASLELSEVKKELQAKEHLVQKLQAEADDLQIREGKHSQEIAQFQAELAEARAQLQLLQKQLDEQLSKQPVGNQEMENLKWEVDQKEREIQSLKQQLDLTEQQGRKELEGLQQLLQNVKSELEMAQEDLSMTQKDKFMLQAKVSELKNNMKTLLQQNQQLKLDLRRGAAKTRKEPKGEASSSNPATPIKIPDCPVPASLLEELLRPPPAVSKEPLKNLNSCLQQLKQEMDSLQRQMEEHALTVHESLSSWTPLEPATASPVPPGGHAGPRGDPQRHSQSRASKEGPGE
# UniProt Q86UL3: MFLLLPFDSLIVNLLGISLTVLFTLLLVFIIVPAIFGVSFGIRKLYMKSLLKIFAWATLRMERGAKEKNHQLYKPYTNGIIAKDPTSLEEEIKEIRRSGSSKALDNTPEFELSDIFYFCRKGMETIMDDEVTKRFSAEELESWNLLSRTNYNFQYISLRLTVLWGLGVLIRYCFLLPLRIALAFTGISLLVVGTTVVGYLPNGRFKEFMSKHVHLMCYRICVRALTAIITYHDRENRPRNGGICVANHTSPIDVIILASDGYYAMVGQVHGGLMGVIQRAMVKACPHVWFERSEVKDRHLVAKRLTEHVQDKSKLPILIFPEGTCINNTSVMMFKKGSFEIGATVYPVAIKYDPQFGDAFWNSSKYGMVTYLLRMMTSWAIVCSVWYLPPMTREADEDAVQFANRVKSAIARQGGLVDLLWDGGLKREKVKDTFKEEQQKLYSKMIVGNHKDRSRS
# UniProt O14908: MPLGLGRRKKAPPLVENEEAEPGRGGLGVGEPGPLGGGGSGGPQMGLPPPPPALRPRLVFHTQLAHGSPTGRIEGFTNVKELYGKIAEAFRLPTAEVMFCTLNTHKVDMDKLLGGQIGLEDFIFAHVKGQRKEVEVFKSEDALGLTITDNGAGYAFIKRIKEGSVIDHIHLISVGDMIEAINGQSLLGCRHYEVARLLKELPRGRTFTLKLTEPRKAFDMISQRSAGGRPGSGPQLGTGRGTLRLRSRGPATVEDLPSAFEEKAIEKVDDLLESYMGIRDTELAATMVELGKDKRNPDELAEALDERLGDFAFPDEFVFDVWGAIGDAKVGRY
# UniProt Q92917: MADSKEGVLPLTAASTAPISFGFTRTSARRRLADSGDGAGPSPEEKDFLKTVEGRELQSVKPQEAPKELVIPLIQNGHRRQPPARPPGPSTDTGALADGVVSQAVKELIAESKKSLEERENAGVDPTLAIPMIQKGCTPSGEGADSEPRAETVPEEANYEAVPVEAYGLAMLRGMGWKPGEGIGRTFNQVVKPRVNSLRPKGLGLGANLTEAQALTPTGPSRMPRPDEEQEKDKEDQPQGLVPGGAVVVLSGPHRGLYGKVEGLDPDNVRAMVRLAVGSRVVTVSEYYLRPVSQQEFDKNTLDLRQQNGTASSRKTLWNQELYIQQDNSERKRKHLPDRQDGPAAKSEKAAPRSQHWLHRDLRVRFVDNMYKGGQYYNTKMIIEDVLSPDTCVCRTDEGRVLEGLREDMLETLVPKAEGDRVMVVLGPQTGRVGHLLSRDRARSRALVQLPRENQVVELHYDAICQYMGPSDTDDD
# UniProt Q5T3I0: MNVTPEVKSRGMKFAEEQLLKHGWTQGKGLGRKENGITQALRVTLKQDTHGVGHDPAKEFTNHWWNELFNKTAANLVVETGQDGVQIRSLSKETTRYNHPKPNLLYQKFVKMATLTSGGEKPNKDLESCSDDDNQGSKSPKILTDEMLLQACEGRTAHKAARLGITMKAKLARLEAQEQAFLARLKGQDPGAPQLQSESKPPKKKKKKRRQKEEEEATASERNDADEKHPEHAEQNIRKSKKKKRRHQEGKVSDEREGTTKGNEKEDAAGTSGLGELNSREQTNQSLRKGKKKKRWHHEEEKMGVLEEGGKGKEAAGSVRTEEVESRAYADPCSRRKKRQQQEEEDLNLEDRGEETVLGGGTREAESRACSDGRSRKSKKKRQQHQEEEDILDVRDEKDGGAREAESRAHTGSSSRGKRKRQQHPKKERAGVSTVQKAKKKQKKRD
# UniProt Q9NVN8: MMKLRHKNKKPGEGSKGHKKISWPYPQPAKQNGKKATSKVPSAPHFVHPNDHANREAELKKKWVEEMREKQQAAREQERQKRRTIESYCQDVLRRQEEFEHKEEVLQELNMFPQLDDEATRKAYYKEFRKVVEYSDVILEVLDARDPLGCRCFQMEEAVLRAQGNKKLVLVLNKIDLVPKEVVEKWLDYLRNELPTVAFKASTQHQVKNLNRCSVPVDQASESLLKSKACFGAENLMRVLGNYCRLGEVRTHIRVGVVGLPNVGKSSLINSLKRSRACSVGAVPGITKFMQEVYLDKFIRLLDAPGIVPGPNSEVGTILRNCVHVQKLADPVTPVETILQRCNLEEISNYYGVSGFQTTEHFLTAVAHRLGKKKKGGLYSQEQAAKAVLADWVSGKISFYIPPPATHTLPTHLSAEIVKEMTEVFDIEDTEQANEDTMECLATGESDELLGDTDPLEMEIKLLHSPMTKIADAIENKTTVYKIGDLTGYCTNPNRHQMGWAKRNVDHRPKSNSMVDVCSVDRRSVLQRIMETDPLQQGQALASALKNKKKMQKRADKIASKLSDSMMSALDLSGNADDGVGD
# UniProt Q9UHW5, whole entry, looked up: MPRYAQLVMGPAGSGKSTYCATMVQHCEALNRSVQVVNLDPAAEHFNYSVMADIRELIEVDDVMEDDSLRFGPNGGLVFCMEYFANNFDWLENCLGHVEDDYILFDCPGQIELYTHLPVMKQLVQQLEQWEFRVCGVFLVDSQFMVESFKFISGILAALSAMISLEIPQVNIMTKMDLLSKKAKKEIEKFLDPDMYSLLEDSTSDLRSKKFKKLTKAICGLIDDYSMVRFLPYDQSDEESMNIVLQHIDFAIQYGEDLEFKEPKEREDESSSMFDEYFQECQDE
# The list shows a part of the results.
# Tests used:
# Test in all cases: log2 fold change, soluble protein after heating vs DMSO (PISA); higher = thermal stabilisation; K562 lysate, 10 uM; active = over 0.2 and 3.5 SD of the protein, either way, in both replicates (recomputed)
# vemurafenib = compound: CCCS(=O)(=O)Nc1ccc(F)c(C(=O)c2c[nH]c3ncc(-c4ccc(Cl)cc4)cc23)c1F [vemurafenib]
# Summary of the method: (§1)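 Pellets of K562 cells were dounce-homogenised in PBS pH 7.4 with 1 mM MgCl2, and the crude extract was held at 1 mg/mL protein for a 30 min treatment with 10 μM compound. Aliquots were heated for 3 min over 48°C-58°C and pooled before NP-40 was added to 0.5% at 4°C. The supernatant from 21,000xg for 90 min was quantified by TMTpro 16plex LC-MS/MS with channel sums equalised. Values are reported from duplicates as log-two fold change in thermal stability relative to solvent controls.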
# [1] = compound: CCCS(=O)(=O)Nc1ccc(F)c(C(=O)c2c[nH]c3ncc(Cl)cc23)c1F
# Summary of the method: as §1
# barasertib = compound: CCN(CCCOc1ccc2c(Nc3cc(CC(=O)Nc4cccc(F)c4)[nH]n3)ncnc2c1)CCOP(=O)(O)O [barasertib]
# Summary of the method: as §1
# [2] = compound: CC[C@@H]1C(=O)N(C)c2cnc(Nc3ccc(C(=O)NC4CCN(C)CC4)cc3OC)nc2N1C1CCCC1
# Summary of the method: as §1
# volasertib = compound: CC[C@@H]1C(=O)N(C)c2cnc(Nc3ccc(C(=O)N[C@H]4CC[C@H](N5CCN(CC6CC6)CC5)CC4)cc3OC)nc2N1C(C)C [volasertib]
# Summary of the method: as §1
# [3] = compound: CCn1c(C(=O)N(C2CC2)C2CC2)cc2c3c(ncn3C)c(Nc3cc(C)n(C)n3)nc21
# Summary of the method: as §1
# [4] = compound: CCn1cc(-c2ccnc3[nH]c(-c4cccc(CN(C)C)c4)cc23)c(-c2ccc(NC(=O)N(C)C)cc2)n1
# Summary of the method: as §1
# [5] = compound: CN1CCC(CNc2ccc3ncc(-c4cccc(OC(F)(F)F)c4)n3n2)CC1
# Summary of the method: as §1
# saracatinib = compound: CN1CCN(CCOc2cc(OC3CCOCC3)c3c(Nc4c(Cl)ccc5c4OCO5)ncnc3c2)CC1 [saracatinib]
# Summary of the method: as §1
# sotrastaurin = compound: CN1CCN(c2nc(C3=C(c4c[nH]c5ccccc45)C(=O)NC3=O)c3ccccc3n2)CC1 [sotrastaurin]
# Summary of the method: as §1
# alvocidib = compound: CN1CC[C@H](c2c(O)cc(O)c3c(=O)cc(-c4ccccc4Cl)oc23)[C@H](O)C1 [alvocidib]
# Summary of the method: as §1
# Tubastatin A = compound: CN1CCc2c(c3ccccc3n2Cc2ccc(C(=O)NO)cc2)C1 [Tubastatin A]
# Summary of the method: as §1
# [6] = compound: CNC(=O)C1=CC=CC=C1NC2=NC(=NC=C2Cl)NC3=C(C=C(C=C3)N4CCOCC4)OC
# Summary of the method: as §1
# defactinib = compound: CNC(=O)c1ccc(Nc2ncc(C(F)(F)F)c(NCc3nccnc3N(C)S(C)(=O)=O)n2)cc1 [defactinib]
# Summary of the method: as §1
# [7] = compound: CNc1nc(-c2ccc3c(N)n[nH]c3c2)cc(N2C[C@@H](C(=O)NC3CCCCC3)CC[C@H]2C)n1
# Summary of the method: as §1
# encorafenib = compound: COC(=O)N[C@@H](C)CNc1nccc(-c2cn(C(C)C)nc2-c2cc(Cl)cc(NS(C)(=O)=O)c2F)n1 [encorafenib]
# Summary of the method: as §1
# [8] = compound: COC(=O)[C@H](CCSC)NC(=O)C1=C(C=C(C=C1)NC[C@H](CS)N)C2=CC=CC=C2
# Summary of the method: as §1
# alisertib = compound: COc1cc(Nc2ncc3c(n2)-c2ccc(Cl)cc2C(c2c(F)cccc2OC)=NC3)ccc1C(=O)O [alisertib]
# Summary of the method: as §1
# [9] = compound: COc1cc2nc(-c3cc(F)ccc3O)nc(N[C@@H]3CNC[C@H]3C(C)(C)O)c2cc1OC
# Summary of the method: as §1
# gefitinib = compound: COc1cc2ncnc(Nc3ccc(F)c(Cl)c3)c2cc1OCCCN1CCOCC1 [gefitinib]
# Summary of the method: as §1
Target,log2 fold change (vemurafenib),log2 fold change [1],log2 fold change (barasertib),log2 fold change [2],log2 fold change (volasertib),log2 fold change [3],log2 fold change [4],log2 fold change [5],log2 fold change (saracatinib),log2 fold change (sotrastaurin),log2 fold change (alvocidib),log2 fold change (Tubastatin A),log2 fold change [6],log2 fold change (defactinib),log2 fold change [7],log2 fold change (encorafenib),log2 fold change [8],log2 fold change (alisertib),log2 fold change [9],log2 fold change (gefitinib)
GMFB (UniProt P60983),inactive: -0.079,inactive: -0.039,inactive: 0.016,inactive: -0.023,inactive: 0.045,inactive: 0.01,inactive: 0,inactive: 0.062,inactive: 0.002,inactive: -0.002,inactive: 0.009,inactive: 0.02,inactive: -0.007,inactive: 0.033,inactive: -0.052,inactive: 0.056,inactive: -0.067,inactive: 0.043,inactive: 0.016,inactive: -0.033
GON4L (UniProt Q3T8J9),inactive: 0,inactive: 0.054,inactive: 0.097,inactive: -0.064,inactive: -0.018,inactive: 0.02,inactive: -0.104,inactive: -0.027,inactive: -0.019,inactive: 0.016,inactive: 0.019,inactive: -0.114,inactive: 0.028,inactive: -0.001,inactive: 0.007,inactive: 0.092,inactive: 0.107,inactive: -0.015,inactive: -0.027,inactive: -0.074
GOLGA3 (UniProt Q08378),inactive: -0.007,inactive: 0.008,inactive: -0.004,inactive: 0.043,inactive: 0.011,inactive: -0.003,inactive: 0.004,inactive: 0.006,inactive: 0.006,inactive: -0.001,inactive: 0.007,inactive: 0.02,inactive: 0.015,inactive: 0.008,inactive: 0.058,inactive: -0.005,inactive: -0.019,inactive: -0.007,inactive: 0.004,inactive: -0.011
GLB1 (UniProt P16278),inactive: -0.034,inactive: 0.012,inactive: -0.029,inactive: 0.02,inactive: -0.045,inactive: -0.017,inactive: -0.066,inactive: 0.019,inactive: -0.032,inactive: 0.043,inactive: -0.042,inactive: -0.032,inactive: 0.005,inactive: 0.006,inactive: 0.055,inactive: -0.036,active: 0.327,inactive: 0.022,inactive: 0.007,inactive: -0.015
GOPC (UniProt Q9HD26),inactive: 0.026,inactive: 0.002,inactive: 0.043,inactive: -0.063,inactive: -0.031,inactive: -0.004,inactive: -0.06,inactive: -0.015,inactive: 0.025,inactive: -0.014,inactive: 0.003,inactive: -0.125,inactive: 0.06,inactive: 0.026,inactive: -0.009,inactive: 0.008,inactive: 0.073,inactive: 0,inactive: -0.025,inactive: 0.01
GPAT3 (UniProt Q53EU6),inactive: 0.001,inactive: 0.004,inactive: 0.122,inactive: 0.018,inactive: 0.009,inactive: -0.015,inactive: -0.153,inactive: 0.037,inactive: 0.026,inactive: 0.02,inactive: 0,inactive: 0.081,inactive: -0.008,inactive: -0.02,inactive: -0.053,inactive: 0.035,inactive: -0.111,inactive: 0.019,inactive: -0.006,inactive: 0.017
GLRX5 (UniProt Q86SX6),inactive: -0.005,inactive: 0.07,inactive: 0.237,inactive: 0.088,inactive: -0.001,inactive: -0.067,inactive: 0.031,inactive: -0.175,inactive: -0.127,inactive: 0.088,inactive: 0.012,inactive: 0.044,inactive: -0.017,inactive: 0.042,inactive: 0.081,inactive: 0.006,inactive: -0.062,inactive: 0.023,inactive: -0.05,inactive: -0.141
GPAT4 (UniProt Q86UL3),inactive: -0.033,inactive: 0.019,inactive: -0.016,inactive: 0.057,inactive: 0.033,inactive: 0.005,inactive: -0.094,inactive: 0.038,inactive: -0.005,inactive: 0.011,inactive: -0.009,inactive: 0.063,inactive: 0.019,inactive: -0.005,inactive: -0.028,inactive: 0.028,inactive: -0.025,inactive: -0.005,inactive: -0.003,inactive: 0.012
GMPR2 isoform 2 (UniProt Q9P2T1),inactive: 0.018,inactive: -0.019,inactive: 0.003,inactive: -0.003,inactive: 0.023,inactive: 0.011,inactive: 0.076,inactive: 0.037,inactive: -0.027,inactive: -0.007,inactive: -0.003,inactive: 0.018,inactive: 0.023,inactive: -0.017,inactive: -0.006,inactive: -0.002,inactive: -0.042,inactive: 0.012,inactive: 0.008,inactive: 0.001
GNAI2 (UniProt P04899),inactive: -0.044,inactive: 0.009,inactive: 0.021,inactive: -0.029,inactive: -0.033,inactive: 0.007,inactive: 0.028,inactive: -0.019,inactive: -0.013,inactive: -0.033,inactive: 0.028,inactive: -0.025,inactive: -0.002,inactive: 0.013,inactive: -0.017,inactive: 0.009,inactive: -0.015,inactive: 0.042,inactive: 0.019,inactive: -0.02
GIPC1 (UniProt O14908),inactive: 0.066,inactive: 0.014,inactive: -0.051,inactive: -0.005,inactive: -0.032,inactive: -0.025,inactive: -0.059,inactive: 0.052,inactive: 0.011,inactive: 0.035,inactive: 0.012,inactive: 0.007,inactive: 0.01,inactive: -0.022,inactive: -0.032,inactive: 0.012,inactive: -0.009,inactive: 0.009,inactive: 0.041,inactive: -0.012
GPKOW (UniProt Q92917),inactive: 0.02,inactive: 0.012,inactive: -0.034,inactive: 0.02,inactive: -0.035,inactive: 0.037,inactive: 0.102,inactive: -0.01,inactive: 0.016,inactive: 0.022,inactive: 0.008,inactive: -0.078,inactive: 0.006,inactive: 0,inactive: -0.016,inactive: 0.02,inactive: -0.083,inactive: 0.031,inactive: 0.011,inactive: 0
GPATCH4 isoform 3 (UniProt Q5T3I0),inactive: -0.024,inactive: 0.046,inactive: 0.042,inactive: -0.05,inactive: -0.02,inactive: 0,inactive: 0.156,inactive: -0.11,inactive: 0.014,inactive: -0.02,inactive: 0.003,inactive: -0.152,inactive: 0.128,inactive: 0.035,inactive: 0.047,inactive: 0.18,inactive: -0.019,inactive: 0.029,inactive: -0.059,inactive: 0.043
GNL3L (UniProt Q9NVN8),inactive: -0.032,inactive: -0.225,inactive: -0.068,inactive: 0.114,inactive: 0.104,inactive: 0.003,inactive: 0.008,inactive: -0.015,inactive: -0.037,inactive: 0.065,inactive: -0.004,inactive: -0.061,inactive: 0.023,inactive: 0.033,inactive: 0.089,inactive: 0.241,inactive: 0.108,inactive: 0.026,inactive: 0.096,inactive: -0.021
GPN3 isoform 2 (UniProt Q9UHW5),inactive: -0.044,inactive: -0.001,inactive: 0.001,inactive: 0.062,inactive: -0.046,inactive: -0.027,inactive: -0.107,inactive: 0.099,inactive: -0.028,inactive: 0.046,inactive: -0.077,inactive: 0.005,inactive: -0.069,inactive: 0.08,inactive: -0.014,inactive: 0.004,inactive: -0.158,inactive: -0.008,inactive: 0.004,inactive: 0.002
GNPDA2 (UniProt Q8TDQ7),inactive: 0.007,inactive: 0.021,inactive: 0.029,inactive: 0.033,inactive: 0.044,inactive: -0.036,inactive: -0.061,inactive: 0.007,inactive: 0.03,inactive: -0.009,inactive: 0.076,inactive: -0.05,inactive: -0.017,inactive: -0.02,inactive: -0.029,inactive: -0.068,inactive: -0.006,inactive: -0.003,inactive: 0.009,inactive: 0.012

# Only log2 fold change (sotrastaurin), log2 fold change [3] and log2 fold change (saracatinib), for some of the entries so far:
Target	log2 fold change (sotrastaurin)	log2 fold change [3]	log2 fold change (saracatinib)
GON4L (UniProt Q3T8J9)	inactive: 0.016	inactive: 0.02	inactive: -0.019
GOLGA3 (UniProt Q08378)	inactive: -0.001	inactive: -0.003	inactive: 0.006
